Data as given in PubChem BioAssay AID1259425 (University of Nebraska Medical Center, 2018).
In all, the deposit lists about 14,000 reagents; this is a part drawn at random. Reagents against one gene are numbered here. A reagent listed more than once was tested more than once; the source does not tell the runs apart. The record does not give: the time to read-out.

Test: 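Compare each knockdown with KSR1 silencing using changes in marker transcripts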 (primary screen)
System: HCT116 human colon cancer cells
Reagent: siRNA pool against human genes, 50 nM siRNA
Detection: 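mRNA of six signature genes measured together by branched-DNA assay after 50 nM siRNA pool, blank removed, divided by geometric mean of two housekeeping genes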
Scale: BNIP3L mRNA: higher = more BNIP3L transcript after knockdown; NDRG1 mRNA: higher = more NDRG1 transcript after knockdown; BNIP3 mRNA: higher = more BNIP3 transcript after knockdown; ALDOC mRNA: higher = more ALDOC transcript after knockdown; ACSL5 mRNA: higher = more ACSL5 transcript after knockdown

no.	target	pool no.	BNIP3L mRNA, set 1	NDRG1 mRNA, set 1	BNIP3 mRNA, set 1	ALDOC mRNA, set 1	ACSL5 mRNA, set 1
1	TRNAU1AP	1	0.0403	0.117	0.232	0.0105	0.205
2	GSK3A	1	0.104	0.0775	0.379	0.00699	0.336
3	MKNK2	1	0.0579	0.0572	0.198	0.00558	0.1
4	CNOT10	1	0.17	0.332	0.824	0.0357	0.469
5	MGAT5	1	0.103	0.159	0.251	0.0179	0.124
6	ZFHX2	1	0.206	0.711	0.275	0.053	0.318
7	ZFHX2	2	0.117	0.447	0.235	0.123	0.0926
8	TXNDC11	1	0.0959	0.418	0.294	0.0126	0.301
9	TCN2	1	0.0842	0.198	0.311	0.0343	0.146
10	MPP3	1	0.0408	0.169	0.302	0.00528	0.212
11	RANBP9	1	0.0754	0.102	0.346	0.0301	0.13
12	ANXA4	1	0.119	0.596	0.316	0.00409	0.23
13	TMBIM1	1	0.141	0.207	0.0986	0.052	0.104
14	RAB4B	1	0.0631	0.0841	0.189	0.0145	0.084
15	CREBL2	1	0.0708	0.213	0.341	0.0106	0.252
16	TXN	1	0.05	0.222	0.254	0.0314	0.0924
17	CEBPG	1	0.0906	0.141	0.512	0.0112	0.295
18	BCAR3	1	0.129	0.0645	0.198	0.0268	0.136
19	TNS3	1	0.834	1.15	0.739	0.0284	0.0866
20	STK10	1	0.0862	0.139	0.4	0.0157	0.393
21	HLA-DRB3	1	0.0596	0.148	0.22	0.0198	0.135
22	MYBPC2	1	0.212	0.828	0.197	0.0127	0.493
23	STEAP3	1	0.0875	0.125	0.312	0.0172	0.0567
24	ATP5F1D	1	0.312	1.04	0.304	0.0672	0.185
25	SOSTDC1	1	0.127	0.197	0.585	0.0328	0.177
26	RIMS2	1	0.347	0.117	0.402	0.0519	0.155
27	EIF2A	1	0.259	0.375	0.358	0.0861	0.32
28	KRT6A	1	0.134	0.0946	0.338	0.041	0.148
29	KRT6A	2	0.127	0.087	0.297	0.0355	0.123
30	ST8SIA4	1	0.0736	0.255	0.192	0.0296	0.0991
31	TTC9	1	0.0681	0.602	0.56	0.011	0.122
32	CAPN5	1	0.0673	0.144	0.26	0.039	0.0533
33	ZIM2	1	0.076	0.133	0.412	0.0326	0.118
34	DMBT1	1	0.0636	0.21	0.274	0.0374	0.246
35	DICER1	1	0.14	0.502	0.319	0.0632	0.309
36	MST1	1	0.0739	0.125	0.234	0.0247	0.167

Next part (6 carried over from the part before).
no.	target	pool no.	BNIP3L mRNA, set 1	NDRG1 mRNA, set 1	BNIP3 mRNA, set 1	ALDOC mRNA, set 1	ACSL5 mRNA, set 1
31	TTC9	1	0.0681	0.602	0.56	0.011	0.122
32	CAPN5	1	0.0673	0.144	0.26	0.039	0.0533
33	ZIM2	1	0.076	0.133	0.412	0.0326	0.118
34	DMBT1	1	0.0636	0.21	0.274	0.0374	0.246
35	DICER1	1	0.14	0.502	0.319	0.0632	0.309
36	MST1	1	0.0739	0.125	0.234	0.0247	0.167
37	MRGPRF	1	0.13	0.584	0.352	0.0224	0.345
38	TES	1	0.133	0.185	0.526	0.0447	0.249
39	PDE9A	1	0.0897	0.123	0.225	0.0204	0.131
40	KIAA1549L	1	0.0927	0.0599	0.203	0.0299	0.0834
41	PARP9	1	0.176	0.318	0.417	0.0876	0.302
42	ZCCHC9	1	0.29	0.273	0.478	0.117	0.491
43	CWC27	1	0.0585	0.185	0.247	0.0246	0.169
44	DFFA	1	0.0491	0.234	0.34	0.0273	0.246
45	PPA2	1	0.0741	0.0597	0.272	0.036	0.0588
46	TSPAN1	1	0.0619	0.16	0.311	0.051	0.0987
47	GPR26	1	0.104	0.201	0.47	0.0283	0.207
48	AVPR1A	1	0.145	0.201	0.29	0.0147	0.13
49	AVPR1A	1	0.106	0.34	0.367	0.00534	0.233
50	SCARF1	1	0.113	0.124	0.232	0.0198	0.231
51	RAD21	1	0.15	0.69	0.322	0.0155	0.391
52	SPAG6	1	0.115	0.493	0.406	0.0171	0.239
53	SEPTIN7	1	0.0503	0.174	0.328	0.0149	0.126
54	TFE3	1	0.0887	0.0708	0.233	0.00941	0.159
55	IL4R	1	0.0478	0.0687	0.141	0.0309	0.122
56	FADD	1	0.0602	0.0614	0.224	0.0272	0.0976
57	ADH6	1	0.158	0.108	0.288	0.0503	0.234
58	PHF20L1	1	0.0593	0.103	0.22	0.00907	0.0808
59	RPL38	1	0.119	0.207	0.378	0.0422	0.151
60	FBXW4P1	1	0.095	0.159	0.299	0.0416	0.163
61	GPR68	1	0.079	0.194	0.272	0.0312	0.254
62	KCNK5	1	0.112	0.217	0.391	0.0365	0.282
63	WNT3	1	0.118	0.178	0.259	0.0158	0.129
